Test results taken from PubChem BioAssay AID1347423 (Functional Genomics Laboratory (NCATS/FGL), 2020).
In all, about 52,000 sequences went through this assay and about 210 (0.4%) were called active.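 The calls were made as follows: active = gene whose silencing raises cell survival under the drug, median off-target-corrected z-score across its silencing RNAs 2 or more; inactive = the rest.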 The list shows a part of the results.

Assay: Resistance to Poly (ADP-Ribose) Polymerase inhibitor: Gene Identification via Genome-wide siRNA Screen
Conditions: mouse BRCA2 R2336H ES cells, olaparib, CellTiter-Glo viability; hits give high values
Method in brief: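 Mouse BRCA2 R2336H ES cells were reverse-transfected with siRNA (20 nM final), treated at 48 h with 500 nM olaparib, and read by CellTiter-Glo after 72 h. Scores: MAD-based z per siRNA, median per gene, seed off-target correction.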

| Sequence | z-score |
| --- | --- |
| CCUCUACUCCUUAUUGUCUTT against Ctf2 | inactive: 1.07 |
| CCAAGCUAGAUAAAGAAAGTT against Yap1 | inactive: -2.41 |
| GAGAAGAAGACAAAGAUCCTT against Defb7 | inactive: -0.714 |
| GCAAUCCAGAGGUACGCUATT against Hgf | inactive: 0.286 |
| GGCUAAACUGAAGGAAUUCTT against Fkbp10 | inactive: -0.482 |
| CCGAGGAGAACACUUGUAGTT against Opn4 | inactive: -0.819 |
| GCUCUUCUCAAGUAUGACGTT against Chrna6 | inactive: 1.06 |
| GGUGUAUGUGCUGAAGCGATT against Ctdspl | inactive: -0.00555 |
| CCUCUUAAGUUUUCCAUGATT against Tuba2 | inactive: -2.07 |
| GGUGACAUCUUCAUUGGCCTT against Actr1a | inactive: -0.486 |
| GCGCGUCAUCUUCUGACUUTT against BC025076 | inactive: -0.524 |
| CCUUCCGCCUAUCCUAUUGTT against Olfr52 | inactive: -0.704 |
| GGAACUUCAGUGUUGCCUCTT against Olfr257 | inactive: 0.105 |
| CCACUUUCUGUUGCACUCUTT against 2310067G05Rik | inactive: -0.948 |
| CGACAUGGAACACAAGACCTT against Map3k11 | inactive: -0.547 |
| GCUGCCGAUUGAUAGCUUCTT against Pik3ca | inactive: -1.11 |
| GGCUCAUUUAACUCCAUGCTT against BC031407 | inactive: 1.54 |
| GGGAAGAGAAAACUGGACUTT against Xrcc1 | inactive: -0.484 |
| GGAAACCCAUUCACAAAUCTT against Tcfec | inactive: 0.19 |
| CCCAUCUCUAUCUUGGCCGTT against D1Bwg1363e | inactive: 0.0856 |
| CUUAAAGGAAUCCUGGUGGTT against LOC434197 | inactive: 1.09 |
| GGAAUCAUCUUCAUUGACCTT against Agpat1 | inactive: -2.32 |
| GGCUUCAGCAUUAAUUGUUTT against Ass | inactive: -1.59 |
| GCUAGAAAGAGUUAAUCUATT against Wdr11 | inactive: -0.638 |
| GGAAGGACUCCUGUACAUCTT against Cyp4f18 | inactive: -0.206 |
| GGUCCAAGCCUUAAUAUAUTT against Aadac | inactive: 0.0303 |

| Sequence | z-score |
| --- | --- |
| CCGUCUUUGUGCUAUGCUGTT against Sstr4 | inactive: 0.256 |
| GCCAUUGCUUUAUAAGGUUTT against Olfr901 | inactive: 0.0414 |
| GGCUGUUUAUUGUAAUGGATT against BB049667 | inactive: 0.537 |
| GGCAGAUACUUCUCUGGAGTT against Sdc4 | inactive: -0.388 |
| GUAGUAACAGGAUCUUCUUTT against V1rc20 | inactive: -0.398 |
| GGAACAAAGUGUCAGAGGATT against Hcls1 | inactive: 0.246 |
| GCAUUACUUGAGCAAAACATT against 1600021C16Rik | inactive: 0.335 |
| GGCUCCAUCGAAAGGUAAATT against Lyar | inactive: 0.696 |
| GGCUUUGAAAGUUACUACUTT against Zfp609 | inactive: 0.684 |
| CGAACAGAGUCUAAUCUCATT against Ptpn1 | inactive: 0.714 |
| GCUCGGUAGGUAUUUUCUGTT against AW547186 | inactive: 1.89 |
| CGAGUGCAUGAAAUCUUCATT against Polr2a | inactive: -2.14 |
| GCUCUAGAAGCGUACAGGCTT against Pole3 | inactive: 0.872 |
| GGCAACCUUGUCUAUUCACTT against 1110014J01Rik | inactive: -0.726 |
| GGAGAAAGGAUAUGAACUUTT against BC013481 | inactive: 0.774 |
| GGAAACCCAGAGCAGCAGATT against Tdg | inactive: 0.246 |
| GGAAAAAGAAAAACCAGCATT against Sytl4 | inactive: -0.521 |
| GGUGUCUUAAAGCUGAAAUTT against E2f5 | inactive: 2.8 |
| GAAGUCUGCCAAAUUAAUGTT against 6330583I20Rik | inactive: 0.225 |
| GCAUUCAAGCAACCACGAATT against Ptdss1 | inactive: -0.153 |
| GCAACCUGCUAUUGGCACUTT against Tm6sf2 | inactive: 1.5 |
| CUAAUGUCUGUGGUCAAAUTT against Trim6 | inactive: -0.535 |
| GGAAUCAAAGGAACAGAGATT against 4930435C18Rik | inactive: -0.79 |
| GCCGAUUUGCUAUCUCAUATT against Tnf | inactive: -0.465 |
| GGAUGAGGCACAGUUGUGUTT against Trim10 | inactive: 1.06 |
| GGUGUUUGAUGUAACUAAATT against Dgke | inactive: 0.396 |

An excerpt of these results, tab-delimited.
Sequence	z-score
GGAAACCCAUUCACAAAUCTT against Tcfec	inactive: 0.19
CCCAUCUCUAUCUUGGCCGTT against D1Bwg1363e	inactive: 0.0856
CUUAAAGGAAUCCUGGUGGTT against LOC434197	inactive: 1.09
GGAAUCAUCUUCAUUGACCTT against Agpat1	inactive: -2.32
GGCUUCAGCAUUAAUUGUUTT against Ass	inactive: -1.59
GCUAGAAAGAGUUAAUCUATT against Wdr11	inactive: -0.638
GGAAGGACUCCUGUACAUCTT against Cyp4f18	inactive: -0.206
GGUCCAAGCCUUAAUAUAUTT against Aadac	inactive: 0.0303
CCGUCUUUGUGCUAUGCUGTT against Sstr4	inactive: 0.256
GCCAUUGCUUUAUAAGGUUTT against Olfr901	inactive: 0.0414
GGCUGUUUAUUGUAAUGGATT against BB049667	inactive: 0.537
GGCAGAUACUUCUCUGGAGTT against Sdc4	inactive: -0.388
GUAGUAACAGGAUCUUCUUTT against V1rc20	inactive: -0.398
GGAACAAAGUGUCAGAGGATT against Hcls1	inactive: 0.246
GCAUUACUUGAGCAAAACATT against 1600021C16Rik	inactive: 0.335
GGCUCCAUCGAAAGGUAAATT against Lyar	inactive: 0.696
GGCUUUGAAAGUUACUACUTT against Zfp609	inactive: 0.684
CGAACAGAGUCUAAUCUCATT against Ptpn1	inactive: 0.714
GCUCGGUAGGUAUUUUCUGTT against AW547186	inactive: 1.89
CGAGUGCAUGAAAUCUUCATT against Polr2a	inactive: -2.14
GCUCUAGAAGCGUACAGGCTT against Pole3	inactive: 0.872
GGCAACCUUGUCUAUUCACTT against 1110014J01Rik	inactive: -0.726
GGAGAAAGGAUAUGAACUUTT against BC013481	inactive: 0.774
GGAAACCCAGAGCAGCAGATT against Tdg	inactive: 0.246
GGAAAAAGAAAAACCAGCATT against Sytl4	inactive: -0.521
GGUGUCUUAAAGCUGAAAUTT against E2f5	inactive: 2.8
GAAGUCUGCCAAAUUAAUGTT against 6330583I20Rik	inactive: 0.225
GCAUUCAAGCAACCACGAATT against Ptdss1	inactive: -0.153
GCAACCUGCUAUUGGCACUTT against Tm6sf2	inactive: 1.5
CUAAUGUCUGUGGUCAAAUTT against Trim6	inactive: -0.535
GGAAUCAAAGGAACAGAGATT against 4930435C18Rik	inactive: -0.79

Continued:

| Sequence | z-score |
| --- | --- |
| GGACGGUAGCCAUAUUAAUTT against Spink2 | inactive: -0.266 |
| GGAUAUCCAUAGAAUGUAATT against 2310042D19Rik | inactive: -1.72 |
| GAGUGGUUUCUAAUUCGUATT against A830031A19Rik | inactive: 0.41 |
| GGAAUAUGAGAAAAUGAGCTT against Ctsc | inactive: 1.38 |
| GUGCAUCAUGUCGGCUUUGTT against MNCb-4137 | inactive: -0.5 |
| CGGCAAUGUGACUAACAUCTT against E430025L02Rik | inactive: -1.06 |
| GGUUAAGUUACUAACCCAGTT against 4931406C07Rik | inactive: 0.632 |
| GGUGGCAUAUACUUUGCUUTT against Cklfsf2a | inactive: 0.693 |
| CGUAGAAGAGUACAUGAUUTT against Pdcd10 | inactive: -0.822 |
| GGAGUGUUCUAGGACUAAGTT against D630003M21 | inactive: 0.794 |
| GGACAAAUCAGUUCUGCGUTT against Car13 | inactive: 0.63 |
| GGAAAUGCGACGAGUAUAUTT against Slc38a1 | inactive: -1.52 |
| GGUAAGUGAACUAUCUAAGTT against Mlstd1 | inactive: -0.136 |
| GGAUGAGCAUAAAAGUCCUTT against Atf7ip | inactive: -0.659 |
| CGGUUUGCCAAAGUACACATT against Exosc1 | inactive: -1.73 |
| CCCUAAGUAAUAGAAGUGGTT against 5330414O08Rik | inactive: -1.29 |
| GCCAGGAGUACUGUAUAUATT against Spint1 | inactive: -0.505 |
| GGAUGUGAUAACUUUUCUATT against Csf2rb2 | inactive: 1.18 |
| GCAGGUAUGAUGAAGGUUCTT against Recql5 | inactive: -1.08 |
| GGCAGUGACCCUAGUUUAUTT against Lhx1 | inactive: -0.0013 |
| GCUGGACUUCUGUGCUUCUTT against Olfr787 | inactive: 0.35 |
| GGACAUAAGAGAAUGGUCATT against Lpp | inactive: 1.63 |
| GCCCAAGUAUUUUAUUUCATT against Asb2 | inactive: 0.0367 |
| GGUUGAGUUGGAUGACCUUTT against Lsm10 | inactive: -0.417 |
| GUUUUGUUUCAGAGCAGAATT against Olfr900 | inactive: -0.277 |
| CGGAGGUGGCUAUAAAAAUTT against Sik2 | inactive: 0.391 |

| Sequence | z-score |
| --- | --- |
| CCGUGUUGUCUGAAAAAUATT against 1110006G06Rik | inactive: -0.404 |
| GCGAAGAGUGAUUGAUCCATT against Myh1 | inactive: -0.591 |
| GGUAGAAGAGUCUGAUCAUTT against Sfrp1 | inactive: -2.25 |
| CCUUCUAAAUACUGAUUUGTT against 9430041C03Rik | inactive: -0.163 |
| GGGCGAGUUGAAGAAUUUCTT against AA545217 | inactive: 0.584 |
| CGAAAGAUCUAAAUCAGAATT against Map3k4 | inactive: 0.605 |
| GGCAUUGUGGAUUUCGAGCTT against 1700021K02Rik | inactive: -0.398 |
| CCUUCAUCAUUACUCUUCUTT against Olfr780 | inactive: 0.12 |
| GGCCACUUGACACUUGGUUTT against Pcdha4 | inactive: -1.09 |
| GGACGAACUGAAGCCCUUATT against Rai2 | inactive: -1.19 |
| GGUCAUCGAGGCUGACUUGTT against Slc39a3 | inactive: -2.01 |
| GGAAUAUUACCAGUCGGAATT against Marveld3 | inactive: 0.596 |
| GGGUUGAAAUCACUAUUGATT against 4933403G14Rik | inactive: -0.763 |
| GCUGCAUAACUCUUACACATT against 1810017G16Rik | inactive: 1.89 |
| GCUGGAGUUAAUGGUCACATT against Olfr1306 | inactive: -1.61 |
| GGUAGAUUAUAGCAAAAUGTT against Ik | inactive: -1.37 |
| GGUUCUUCGGCUUAUGUUGTT against D13Bwg1146e | inactive: 1.1 |
| GGAAGAGGAAAUGGAAUCATT against 3010026O09Rik | inactive: -0.778 |
| GGGAGGUGUCUUUACGUCUTT against Neto1 | inactive: 0.229 |
| AACAAUGAGAUCGACUUUATT against Olfr1500 | inactive: -0.695 |
| GGUCUUCUCCAAGAUCUUCTT against Cyp26b1 | inactive: 0.482 |
| CCAGCACGCAUUUAAAUAATT against Olfr628 | inactive: -0.544 |
| GCAGUAUGAGAUCUCCUUCTT against Galnt10 | inactive: -0.313 |
| GGGUGAUGAAGAUGGCACUTT against Olfr66 | inactive: 0.00101 |
| GCGGCCACGGGACGGCGGUTT against Hmx2 | inactive: 0.841 |
| GCUGUACCACAACUAGUCATT against Cdc7 | inactive: -1.47 |

Reprinted at random: 2 records from the list.

| Sequence | z-score |
| --- | --- |
| CCGUGUUGUCUGAAAAAUATT against 1110006G06Rik | inactive: -0.404 |
| GGACGAACUGAAGCCCUUATT against Rai2 | inactive: -1.19 |
